# Reference: patent publication US20140017701A1, “CHIMERIC PDK1 KINASES” (priority 2011, published 2014)
# These are yes or no findings as the source states them, for the method shown. Some entries that bind do so weakly or less than the wild type. Where a sequence is shown, tags or fusion partners need not be part of it.
# T1: His6-tagged PKCι Δ223 (human)
# T1 sequence: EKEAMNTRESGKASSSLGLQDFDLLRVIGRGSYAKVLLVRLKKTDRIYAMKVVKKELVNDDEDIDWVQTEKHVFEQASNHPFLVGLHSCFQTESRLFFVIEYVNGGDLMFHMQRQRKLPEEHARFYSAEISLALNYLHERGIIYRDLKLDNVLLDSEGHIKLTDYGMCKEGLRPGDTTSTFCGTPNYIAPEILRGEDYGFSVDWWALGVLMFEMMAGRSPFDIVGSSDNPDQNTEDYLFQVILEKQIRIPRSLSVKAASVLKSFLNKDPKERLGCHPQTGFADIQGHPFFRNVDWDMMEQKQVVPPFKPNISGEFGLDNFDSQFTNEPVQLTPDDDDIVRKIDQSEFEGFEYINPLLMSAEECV
# Target: T1, His6-tagged PKCι Δ223 (human)
# Assay: AlphaScreen displacement of GST-PSR-C1 from His-PKCι Δ223; binding inferred from displacement
binder,measurement,value
"VGNQLPFIGFTYFRENL [ROCK-HM, HM polypeptide derived from the AGC kinase ROCK]",binding,binds
